In PubChem BioAssay AID2685 (National Center for Advancing Translational Sciences (NCATS), 2010):
Some of the results follow. Shown are side measurements of this screen, not its main read-out; they come without a call. Most of these compounds were active or inconclusive in the main read-out, so they are no random draw. The note in brackets gives the kind of curve behind each potency; many fits are weak.

Experiment: qHTS Assay for Lipid Storage Modulators in Drosophila S3 Cells;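 on cell number change: cells counted by Cell Tracker Red CMTPX staining in the red channel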
Conditions: BODIPY lipid droplet fluorescence, 18-24 h; for cell number change: measured here: cell count max response, cells fed with added oleic acid
Outline: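 Drosophila S3 cells loaded with oleic acid (400 uM, as added) and compounds at several concentrations; lipid droplets imaged by 488-nm laser-scanning cytometry, 500–530 nm intensity and object ratio to cell channel. Percent activity normalized to 20 uM Triacsin C.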

[1] = measured here: cell number channel AC50, cells fed with added oleic acid
[2] = measured here: lipid fluorescence (Fed channel) AC50, cells fed with added oleic acid

SMILES | cell number change | AC50 [1] | AC50 [2]
CCC(=O)N1CCN(c2ccc(NC(=O)COc3ccc(CC)cc3)cc2)CC1 | 33.9% | 32.6 µM [rising, single point] | 
CN(C)S(=O)(=O)c1ccc(N2CCCC2)c(C(=O)Nc2nc(-c3ccc(F)c(F)c3)cs2)c1 | 32.3% | 2.91 µM [rising, full curve, poor fit] | 2.59 µM [rising, full curve]
O=C(Cn1ncc2c(=O)oc3ccccc3c21)N1CCCc2ccccc21 | -15% |  | 10.3 µM [rising, partial curve]
O=C(NCc1ccco1)c1cccc(NS(=O)(=O)c2cccc(F)c2)c1 | -1.57% |  | 
O=C(Nc1ccccc1)c1cc2ccccc2c(=O)s1 | -0.437% |  | 0.116 µM [falling, full curve, poor fit]
CCCN1CCC(NC(=O)Cc2ccccc2OC)CC1 | 6.61% |  | 6.51 µM [rising, partial curve, poor fit]
CCN(CC)S(=O)(=O)c1cccc(-c2nnc(SCCOc3ccccc3)o2)c1 |  |  | 29.1 µM [falling, single point]
O=C(CSc1nccn1-c1ccccc1)Nc1ccc2c(c1)OCO2 | 37.5% | 1.84 µM [rising, partial curve, poor fit] | 
CC(OC(=O)c1ccc([N+](=O)[O-])o1)C(=O)NC1CCCCC1C (centres undefined) | -11% |  | 0.103 µM [falling, full curve, poor fit]
COc1cc2c(cc1OC)C1O[C@](CCCCN3C(=O)c4ccccc4C3=O)(C2)Oc2cc(C)n(Cc3ccccc3)c(=O)c21 | -29% |  | 6.68 µM [falling, single point]
COc1ccccc1OCCCCn1c(C(C)O)nc2ccccc21 (centres undefined) | -12.4% |  | 
COc1ccccc1C(C)NS(=O)(=O)c1cccs1 (centres undefined) | 4.03% |  | 0.0058 µM [falling, full curve, poor fit]
Cc1ccc(CSC(Nc2ccc(F)cc2)=C(C#N)C#N)cc1 | -34% | 6.51 µM [falling, full curve, poor fit] | 23.1 µM [falling, partial curve]
CCSc1nnc(NC(=O)c2csc3c2CCCC3)s1 | -12.9% | 0.184 µM [falling, full curve, poor fit] | 29.1 µM [falling, partial curve]
CCOC(=O)N1CCN(S(=O)(=O)c2c(C(=O)N3CCCCC3)c(C)n(C)c2C)CC1 | 23% | 6.51 µM [falling, single point] | 
Cc1ccc(/C=C/C(=O)NCc2cccs2)o1 | 18.8% |  | 29.1 µM [rising, single point]
O=C(CCS(=O)(=O)Cc1ccc(Cl)cc1)NCCCN1CCN(c2ccccc2F)CC1 |  | 6.51 µM [rising, single point] | 
Cc1ccc2sc(N(CCCN(C)C)C(=O)c3ccc(S(=O)(=O)N(C)C)cc3)nc2c1C | -13.1% |  | 11.6 µM [falling, single point]
O=C(O)c1ccccc1NC(=S)NC(=O)c1cccc2ccccc12 |  |  | 2.31 µM [falling, single point]

Entries of single compounds, quoted from the list.
COc1ccccc1OCCCCn1c(C(C)O)nc2ccccc21 (centres undefined) is listed as cell number change: -12.4%
CCSc1nnc(NC(=O)c2csc3c2CCCC3)s1 is listed as cell number change: -12.9%; AC50 [1]: 0.184 µM [falling, full curve, poor fit]; AC50 [2]: 29.1 µM [falling, partial curve]

Remaining list, next part

SMILES | cell number change | AC50 [1] | AC50 [2]
COc1ccccc1C(=O)Nc1sc2c(c1C#N)CCC2 | -14.1% |  | 6.51 µM [falling, single point]
C/C(=N\Nc1ccccn1)c1ccc(N2CCOCC2)cc1 | 51% | 2.06 µM [rising, full curve] | 29.1 µM [rising, single point]
CC1CN(C(=O)Nc2ccc(Br)cc2Cl)CC(C)O1 (centres undefined) | 18.1% |  | 0.562 µM [falling, single point]
CCn1cc(/C=C/C(=O)Nc2c(C)nn(Cc3ccccc3)c2C)cn1 | 16.7% | 3.66 µM [rising, single point] | 
COc1ccc(C2=Nn3c(nnc3C(F)(F)F)SC2)cc1 | 5.71% |  | 0.00461 µM [falling, full curve, poor fit]
COc1cc2c(cc1OC)[C@@H]1O[C@](CCCCN3C(=O)c4ccccc4C3=O)(C2)Oc2cc(C)n(-c3ccccc3)c(=O)c21 | -17.2% |  | 
Cc1cc(C(=O)Nc2ccc3c(c2)OCCO3)c(C)o1 | 20.7% |  | 3.26 µM [falling, partial curve]
CCOCCCN(C(=O)c1snc(C(N)=O)c1N)C(C(=O)NC1CCCC1)c1ccc(F)cc1 (centres undefined) | -1.32% |  | 
O=C(c1cccc(Cl)c1)N(Cc1cccs1)C1CCS(=O)(=O)C1 (centres undefined) | -4.46% | 0.651 µM [falling, full curve, poor fit] | 0.13 µM [falling, full curve, poor fit]
CCCNC(=O)OC[C@H]1O[C@H](CCO/N=C/C[C@@H]2C=C[C@H](OC(C)=O)[C@@H](COC(C)=O)O2)C=C[C@@H]1Oc1ccc(OC)cc1 | -30.3% | 29.1 µM [falling, single point] | 29.1 µM [falling, single point]
O=C1CSC(c2ccccc2F)N1CCN1CCCCC1 (centres undefined) | 3.28% | 0.58 µM [rising, single point] | 
COc1ccccc1C1=NN(C2=NN=C(N)Cc3ncnn32)C(O)(C(F)(F)F)C1 (centres undefined) | 72.7% | 16.4 µM [rising, partial curve] | 20.6 µM [rising, partial curve]
O=C(Nc1ccc(N2CCCC2)cc1)c1cccc(Cl)c1 | 16.9% |  | 0.0651 µM [rising, full curve, poor fit]
Cc1ccc(C(=O)Nc2ccc(N3CCN(C)CC3)cc2)cc1 | 11.6% |  | 
O=C(O)C1CC(O)CN1C(=O)c1ccco1 (centres undefined) | -36.6% | 8.2 µM [falling, partial curve] | 13 µM [falling, partial curve]
Cc1ccc(S(=O)(=O)N2CCCN(C(=O)CNC(=O)c3ccccc3)CC2)cc1 | -0.803% |  | 
COc1ccc(CCNc2ccc(C(CC(N)=O)NC(=O)c3cc(C)cc(C)c3)cc2[N+](=O)[O-])cc1 (centres undefined) | 3.59% |  | 0.651 µM [rising, single point]
CCn1c(NN)nc2sc3c(c2c1=O)CCC3 | 91.4% | 8.2 µM [rising, partial curve] | 0.146 µM [rising, full curve, poor fit]
